Test [1] has as its target T1, endogenous CMTR1 (human (endogenous in HeLa)) (UniProt Q8N1G2).
T1 sequence: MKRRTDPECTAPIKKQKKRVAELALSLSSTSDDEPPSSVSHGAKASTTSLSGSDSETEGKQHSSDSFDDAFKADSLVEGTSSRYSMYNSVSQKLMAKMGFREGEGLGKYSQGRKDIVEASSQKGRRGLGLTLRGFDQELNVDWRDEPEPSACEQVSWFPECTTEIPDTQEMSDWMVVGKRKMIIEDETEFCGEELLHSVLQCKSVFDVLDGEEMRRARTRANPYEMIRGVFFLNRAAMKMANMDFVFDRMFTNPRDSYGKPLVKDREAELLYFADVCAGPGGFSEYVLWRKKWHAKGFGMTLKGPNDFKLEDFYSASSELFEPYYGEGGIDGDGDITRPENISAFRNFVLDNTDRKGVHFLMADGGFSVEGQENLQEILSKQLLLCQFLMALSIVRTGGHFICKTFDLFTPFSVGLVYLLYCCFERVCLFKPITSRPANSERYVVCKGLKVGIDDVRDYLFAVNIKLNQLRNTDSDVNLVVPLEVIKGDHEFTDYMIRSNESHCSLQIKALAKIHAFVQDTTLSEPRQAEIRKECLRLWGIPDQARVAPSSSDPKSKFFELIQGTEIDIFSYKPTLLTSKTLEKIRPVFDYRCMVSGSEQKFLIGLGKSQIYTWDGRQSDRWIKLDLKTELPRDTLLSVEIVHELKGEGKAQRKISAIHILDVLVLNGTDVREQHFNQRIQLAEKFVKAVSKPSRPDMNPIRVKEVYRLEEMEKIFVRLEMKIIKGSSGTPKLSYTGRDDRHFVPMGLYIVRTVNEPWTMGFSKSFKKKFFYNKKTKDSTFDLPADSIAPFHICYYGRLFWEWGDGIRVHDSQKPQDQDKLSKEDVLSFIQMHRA
The experiment in a line: co-IP; endogenous proteins, antibody on protein-G Sepharose, extracts of HeLa, HCC1809, U2OS and HEK293 cells, 2 h at 4°C, washes with 0.1 M NaCl, Western blot; sheep IgG as control; RNase A treatment of the IP in Fig 1F. Background: In western blotting, separated proteins are transferred to a membrane and probed.

Test [2] deals with GFP-DHX15 (human), O43143. The experiment in a line: co-IP; tagged proteins expressed in HeLa cells, IP from cell extracts by the tag (anti-GFP, anti-HA or anti-FLAG), washes with lysis buffer containing 0.1 M NaCl, Western blot; RNase A treatment of the IP in Fig S6B. Particulars: remark: other sources report otherwise.

These are yes or no findings as the source states them, for the method shown. Binding seen in cells or lysates may run through a third protein. For some assays here: Tags and fused reporters may be left off the sequences shown.

B1: DHX16 (enzyme, UniProt O60231 1-1041)
chain: MATPAGLERWVQDELHSVLGLSERHVAQFLIGTAQRCTSAEEFVQRLRDTDTLDLSGPARDFALRLWNKVPRKAVVEKPARAAEREARALLEKNRSYRLLEDSEESSEETVSRAGSSLQKKRKKRKHLRKKREEEEEEEASEKGKKKTGGSKQQTEKPESEDEWERTERERLQDLEERDAFAERVRQRDKDRTRNVLERSDKKAYEEAQKRLKMAEEDRKAMVPELRKKSRREYLAKREREKLEDLEAELADEEFLFGDVELSRHERQELKYKRRVRDLAREYRAAGEQEKLEATNRYHMPKETRGQPARAVDLVEEESGAPGEEQRRWEEARLGAASLKFGARDAASQEPKYQLVLEEEETIEFVRATQLQGDEEPSAPPTSTQAQQKESIQAVRRSLPVFPFREELLAAIANHQVLIIEGETGSGKTTQIPQYLFEEGYTNKGMKIACTQPRRVAAMSVAARVAREMGVKLGNEVGYSIRFEDCTSERTVLRYMTDGMLLREFLSEPDLASYSVVMVDEAHERTLHTDILFGLIKDVARFRPELKVLVASATMDTARFSTFFDDAPVFRIPGRRFPVDIFYTKAPEADYLEACVVSVLQIHVTQPPGDILVFLTGQEEIEAACEMLQDRCRRLGSKIRELLVLPIYANLPSDMQARIFQPTPPGARKVVVATNIAETSLTIEGIIYVLDPGFCKQKSYNPRTGMESLTVTPCSKASANQRAGRAGRVAAGKCFRLYTAWAYQHELEETTVPEIQRTSLGNVVLLLKSLGIHDLMHFDFLDPPPYETLLLALEQLYALGALNHLGELTTSGRKMAELPVDPMLSKMILASEKYSCSEEILTVAAMLSVNNSIFYRPKDKVVHADNARVNFFLPGGDHLVLLNVYTQWAESGYSSQWCYENFVQFRSMRRARDVREQLEGLLERVEVGLSSCQGDYIRVRKAITAGYFYHTARLTRSGYRTVKQQQTVFIHPNSSLFEQQPRWLLYHELVLTTKEFMRQVLEIESSWLLEVAPHYYKAKELEDPHAKKMPKKIGKTREELG
As for B1, the binding result in test [1] is “no binding”.

B2: HA-DHX15 WT, O43143 1-795 (enzyme)
chain: MSKRHRLDLGEDYPSGKKRAGTDGKDRDRDRDREDRSKDRDRERDRGDREREREKEKEKELRASTNAMLISAGLPPLKASHSAHSTHSAHSTHSTHSAHSTHAGHAGHTSLPQCINPFTNLPHTPRYYDILKKRLQLPVWEYKDRFTDILVRHQSFVLVGETGSGKTTQIPQWCVEYMRSLPGPKRGVACTQPRRVAAMSVAQRVADEMDVMLGQEVGYSIRFEDCSSAKTILKYMTDGMLLREAMNDPLLERYGVIILDEAHERTLATDILMGVLKEVVRQRSDLKVIVMSATLDAGKFQIYFDNCPLLTIPGRTHPVEIFYTPEPERDYLEAAIRTVIQIHMCEEEEGDLLLFLTGQEEIDEACKRIKREVDDLGPEVGDIKIIPLYSTLPPQQQQRIFEPPPPKKQNGAIGRKVVVSTNIAETSLTIDGVVFVIDPGFAKQKVYNPRIRVESLLVTAISKASAQQRAGRAGRTRPGKCFRLYTEKAYKTEMQDNTYPEILRSNLGSVVLQLKKLGIDDLVHFDFMDPPAPETLMRALELLNYLAALNDDGDLTELGSMMAEFPLDPQLAKMVIASCDYNCSNEVLSITAMLSVPQCFVRPTEAKKAADEAKMRFAHIDGDHLTLLNVYHAFKQNHESVQWCYDNFINYRSLMSADNVRQQLSRIMDRFNLPRRSTDFTSRDYYINIRKALVTGYFMQVAHLERTGHYLTVKDNQVVQLHPSTVLDHKPEWVLYNEFVLTTKNYIRTCTDIKPEWLVKIAPQYYDMSNFPQCEAKRQLDRIIAKLQSKEYSQY
In the case of B2, in test [2], the binding entry is recorded as “no binding”.

Values taken from PMC6071836.
